Read-outs that look alike come from different tables or passages of the source. Results are given in words; binding and its absence hold for the method and conditions named. In cells and extracts the contact can be indirect. A yes stands for co-enrichment or nearness to the bait. Other partners may have been found. For part of these data: No binding means not detected with the bait. For part of these data: Sequences can lack the tags named with a protein.

Protein sequences, listed by entry. Tags and fused reporters are not part of them. Lines headed by an entry give the natural chain unless they say otherwise; changes in a name come on top.
UniProt Q6EVK6: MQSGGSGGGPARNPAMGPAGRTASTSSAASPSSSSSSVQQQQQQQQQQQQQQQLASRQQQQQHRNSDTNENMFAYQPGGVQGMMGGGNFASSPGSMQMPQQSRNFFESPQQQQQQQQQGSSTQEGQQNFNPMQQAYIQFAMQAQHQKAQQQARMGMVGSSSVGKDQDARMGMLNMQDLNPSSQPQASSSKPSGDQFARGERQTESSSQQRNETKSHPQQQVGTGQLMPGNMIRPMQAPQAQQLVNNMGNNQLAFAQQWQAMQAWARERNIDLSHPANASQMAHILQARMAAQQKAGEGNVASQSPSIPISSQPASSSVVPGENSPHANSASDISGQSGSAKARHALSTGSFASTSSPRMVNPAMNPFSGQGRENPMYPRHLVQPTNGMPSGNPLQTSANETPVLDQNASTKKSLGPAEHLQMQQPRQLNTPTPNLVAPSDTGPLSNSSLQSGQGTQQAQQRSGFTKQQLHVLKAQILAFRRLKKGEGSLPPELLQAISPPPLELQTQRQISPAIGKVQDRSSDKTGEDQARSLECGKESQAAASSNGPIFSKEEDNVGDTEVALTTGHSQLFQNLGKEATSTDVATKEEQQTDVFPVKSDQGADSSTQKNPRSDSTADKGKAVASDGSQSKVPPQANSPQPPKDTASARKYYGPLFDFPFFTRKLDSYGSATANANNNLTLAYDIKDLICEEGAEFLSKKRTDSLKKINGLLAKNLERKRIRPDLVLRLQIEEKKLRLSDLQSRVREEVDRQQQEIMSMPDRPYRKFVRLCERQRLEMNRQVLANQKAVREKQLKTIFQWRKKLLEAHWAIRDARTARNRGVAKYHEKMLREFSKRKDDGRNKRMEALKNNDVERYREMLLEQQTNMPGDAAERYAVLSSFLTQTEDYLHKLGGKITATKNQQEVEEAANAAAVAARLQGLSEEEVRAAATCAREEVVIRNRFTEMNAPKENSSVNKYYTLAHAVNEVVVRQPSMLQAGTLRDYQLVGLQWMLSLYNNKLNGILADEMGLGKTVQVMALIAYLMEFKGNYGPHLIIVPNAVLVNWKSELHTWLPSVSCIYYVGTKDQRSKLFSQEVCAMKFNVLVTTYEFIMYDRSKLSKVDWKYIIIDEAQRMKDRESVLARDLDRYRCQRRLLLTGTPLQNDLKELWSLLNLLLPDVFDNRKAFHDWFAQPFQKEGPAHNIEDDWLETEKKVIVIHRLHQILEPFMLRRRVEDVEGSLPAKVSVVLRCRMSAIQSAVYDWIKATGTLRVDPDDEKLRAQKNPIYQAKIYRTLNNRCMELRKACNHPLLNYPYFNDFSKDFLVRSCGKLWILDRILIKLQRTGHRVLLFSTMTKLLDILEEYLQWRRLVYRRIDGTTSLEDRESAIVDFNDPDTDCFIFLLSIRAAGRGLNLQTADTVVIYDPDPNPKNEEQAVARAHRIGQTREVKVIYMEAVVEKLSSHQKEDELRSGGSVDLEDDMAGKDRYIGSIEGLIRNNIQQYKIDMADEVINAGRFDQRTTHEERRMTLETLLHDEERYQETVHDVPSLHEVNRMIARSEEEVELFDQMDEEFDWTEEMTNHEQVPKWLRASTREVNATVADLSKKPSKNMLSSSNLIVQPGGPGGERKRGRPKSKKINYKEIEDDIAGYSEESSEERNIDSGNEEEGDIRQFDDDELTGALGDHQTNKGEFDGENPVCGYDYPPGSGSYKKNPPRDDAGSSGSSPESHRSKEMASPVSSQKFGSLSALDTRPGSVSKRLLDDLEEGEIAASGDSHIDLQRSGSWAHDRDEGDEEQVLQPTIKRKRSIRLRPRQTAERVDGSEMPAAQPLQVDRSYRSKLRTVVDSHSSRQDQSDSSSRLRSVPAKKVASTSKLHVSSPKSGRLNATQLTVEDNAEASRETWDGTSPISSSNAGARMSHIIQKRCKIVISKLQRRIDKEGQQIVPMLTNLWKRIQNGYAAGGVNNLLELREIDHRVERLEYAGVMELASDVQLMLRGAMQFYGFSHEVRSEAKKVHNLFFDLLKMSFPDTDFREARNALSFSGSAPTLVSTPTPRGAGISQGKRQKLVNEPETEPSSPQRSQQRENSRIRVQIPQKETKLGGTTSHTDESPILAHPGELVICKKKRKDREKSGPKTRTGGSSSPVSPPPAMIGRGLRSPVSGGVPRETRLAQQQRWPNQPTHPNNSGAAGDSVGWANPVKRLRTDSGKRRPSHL
UniProt Q9LM88: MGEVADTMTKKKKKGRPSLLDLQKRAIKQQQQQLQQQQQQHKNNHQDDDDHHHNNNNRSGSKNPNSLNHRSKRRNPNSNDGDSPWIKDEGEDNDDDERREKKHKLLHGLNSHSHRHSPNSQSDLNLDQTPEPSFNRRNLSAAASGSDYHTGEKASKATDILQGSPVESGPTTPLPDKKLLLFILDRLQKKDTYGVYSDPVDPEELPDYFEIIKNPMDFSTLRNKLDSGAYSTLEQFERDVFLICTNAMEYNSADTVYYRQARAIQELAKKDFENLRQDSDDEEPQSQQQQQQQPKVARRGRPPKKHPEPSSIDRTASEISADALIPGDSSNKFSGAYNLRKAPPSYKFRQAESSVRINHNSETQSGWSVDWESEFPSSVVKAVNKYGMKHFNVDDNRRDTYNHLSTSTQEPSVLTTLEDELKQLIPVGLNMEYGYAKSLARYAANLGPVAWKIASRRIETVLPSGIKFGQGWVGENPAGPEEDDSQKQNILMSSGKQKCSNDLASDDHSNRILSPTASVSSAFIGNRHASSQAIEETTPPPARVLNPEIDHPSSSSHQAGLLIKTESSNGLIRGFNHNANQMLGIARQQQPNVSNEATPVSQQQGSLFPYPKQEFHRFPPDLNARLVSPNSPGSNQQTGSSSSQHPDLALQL
UniProt Q9LPJ1: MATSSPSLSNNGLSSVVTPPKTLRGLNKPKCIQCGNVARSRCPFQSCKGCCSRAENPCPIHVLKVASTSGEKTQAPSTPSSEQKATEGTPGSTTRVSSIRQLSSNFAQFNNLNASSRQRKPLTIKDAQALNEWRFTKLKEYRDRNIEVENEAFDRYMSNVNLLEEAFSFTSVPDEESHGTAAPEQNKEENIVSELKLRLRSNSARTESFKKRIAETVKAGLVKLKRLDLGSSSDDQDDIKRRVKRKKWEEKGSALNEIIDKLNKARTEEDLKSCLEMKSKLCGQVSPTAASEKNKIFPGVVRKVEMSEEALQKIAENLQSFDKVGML
UniProt Q9FMT4: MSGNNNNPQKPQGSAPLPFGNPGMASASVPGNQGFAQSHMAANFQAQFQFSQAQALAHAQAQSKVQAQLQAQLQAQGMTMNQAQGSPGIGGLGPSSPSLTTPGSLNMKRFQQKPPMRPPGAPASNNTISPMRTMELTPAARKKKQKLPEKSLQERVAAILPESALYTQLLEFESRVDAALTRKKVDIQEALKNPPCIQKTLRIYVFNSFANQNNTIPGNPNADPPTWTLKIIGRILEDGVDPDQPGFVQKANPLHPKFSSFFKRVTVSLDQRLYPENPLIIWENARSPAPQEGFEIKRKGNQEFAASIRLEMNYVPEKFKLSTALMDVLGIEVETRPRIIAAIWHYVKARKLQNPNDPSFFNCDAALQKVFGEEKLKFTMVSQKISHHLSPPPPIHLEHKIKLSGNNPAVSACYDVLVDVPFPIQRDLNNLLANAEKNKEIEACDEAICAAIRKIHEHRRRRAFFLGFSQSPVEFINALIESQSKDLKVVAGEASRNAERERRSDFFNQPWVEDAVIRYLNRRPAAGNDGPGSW
UniProt Q9LF51: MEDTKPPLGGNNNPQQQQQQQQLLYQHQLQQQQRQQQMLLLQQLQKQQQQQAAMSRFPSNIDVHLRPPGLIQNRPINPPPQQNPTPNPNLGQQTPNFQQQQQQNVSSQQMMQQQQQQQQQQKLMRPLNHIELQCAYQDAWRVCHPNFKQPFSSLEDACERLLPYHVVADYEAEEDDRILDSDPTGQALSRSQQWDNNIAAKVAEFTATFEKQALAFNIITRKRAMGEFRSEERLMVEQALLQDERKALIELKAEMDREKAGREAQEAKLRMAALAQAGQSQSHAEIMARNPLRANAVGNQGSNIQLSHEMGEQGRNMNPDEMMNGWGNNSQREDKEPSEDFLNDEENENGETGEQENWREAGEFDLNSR
UniProt F4JBZ1: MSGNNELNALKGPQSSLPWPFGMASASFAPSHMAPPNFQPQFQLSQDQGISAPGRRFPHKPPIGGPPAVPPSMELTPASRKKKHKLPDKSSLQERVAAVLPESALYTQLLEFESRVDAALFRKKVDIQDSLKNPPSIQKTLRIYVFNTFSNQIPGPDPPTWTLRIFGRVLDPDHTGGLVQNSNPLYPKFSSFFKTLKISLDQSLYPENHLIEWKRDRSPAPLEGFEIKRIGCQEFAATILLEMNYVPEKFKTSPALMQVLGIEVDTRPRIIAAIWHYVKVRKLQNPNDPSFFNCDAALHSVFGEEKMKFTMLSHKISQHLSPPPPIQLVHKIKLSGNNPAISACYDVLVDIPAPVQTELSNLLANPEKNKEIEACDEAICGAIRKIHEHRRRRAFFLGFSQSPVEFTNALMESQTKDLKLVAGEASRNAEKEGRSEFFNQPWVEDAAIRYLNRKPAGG
UniProt Q9C6P8: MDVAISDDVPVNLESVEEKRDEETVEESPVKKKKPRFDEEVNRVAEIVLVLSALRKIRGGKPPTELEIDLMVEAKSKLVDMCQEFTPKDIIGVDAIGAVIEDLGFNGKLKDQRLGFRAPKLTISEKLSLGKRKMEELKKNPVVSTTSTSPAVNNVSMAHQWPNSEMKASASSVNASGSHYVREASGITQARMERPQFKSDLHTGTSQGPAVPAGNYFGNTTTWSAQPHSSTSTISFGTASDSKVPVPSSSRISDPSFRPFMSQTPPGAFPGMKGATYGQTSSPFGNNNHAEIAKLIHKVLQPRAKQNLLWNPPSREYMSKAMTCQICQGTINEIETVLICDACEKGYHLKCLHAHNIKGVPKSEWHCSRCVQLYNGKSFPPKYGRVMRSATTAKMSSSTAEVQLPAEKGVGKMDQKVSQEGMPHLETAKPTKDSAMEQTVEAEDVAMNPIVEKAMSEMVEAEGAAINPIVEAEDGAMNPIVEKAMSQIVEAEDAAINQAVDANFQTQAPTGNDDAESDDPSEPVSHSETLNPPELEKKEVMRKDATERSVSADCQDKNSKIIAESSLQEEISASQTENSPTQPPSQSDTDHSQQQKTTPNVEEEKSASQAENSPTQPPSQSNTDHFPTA
UniProt Q9FLP2: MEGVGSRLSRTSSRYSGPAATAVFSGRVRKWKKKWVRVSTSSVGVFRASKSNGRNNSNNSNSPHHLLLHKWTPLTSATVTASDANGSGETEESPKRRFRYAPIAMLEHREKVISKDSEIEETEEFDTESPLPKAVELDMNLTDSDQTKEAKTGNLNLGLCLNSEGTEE
UniProt F4IX81: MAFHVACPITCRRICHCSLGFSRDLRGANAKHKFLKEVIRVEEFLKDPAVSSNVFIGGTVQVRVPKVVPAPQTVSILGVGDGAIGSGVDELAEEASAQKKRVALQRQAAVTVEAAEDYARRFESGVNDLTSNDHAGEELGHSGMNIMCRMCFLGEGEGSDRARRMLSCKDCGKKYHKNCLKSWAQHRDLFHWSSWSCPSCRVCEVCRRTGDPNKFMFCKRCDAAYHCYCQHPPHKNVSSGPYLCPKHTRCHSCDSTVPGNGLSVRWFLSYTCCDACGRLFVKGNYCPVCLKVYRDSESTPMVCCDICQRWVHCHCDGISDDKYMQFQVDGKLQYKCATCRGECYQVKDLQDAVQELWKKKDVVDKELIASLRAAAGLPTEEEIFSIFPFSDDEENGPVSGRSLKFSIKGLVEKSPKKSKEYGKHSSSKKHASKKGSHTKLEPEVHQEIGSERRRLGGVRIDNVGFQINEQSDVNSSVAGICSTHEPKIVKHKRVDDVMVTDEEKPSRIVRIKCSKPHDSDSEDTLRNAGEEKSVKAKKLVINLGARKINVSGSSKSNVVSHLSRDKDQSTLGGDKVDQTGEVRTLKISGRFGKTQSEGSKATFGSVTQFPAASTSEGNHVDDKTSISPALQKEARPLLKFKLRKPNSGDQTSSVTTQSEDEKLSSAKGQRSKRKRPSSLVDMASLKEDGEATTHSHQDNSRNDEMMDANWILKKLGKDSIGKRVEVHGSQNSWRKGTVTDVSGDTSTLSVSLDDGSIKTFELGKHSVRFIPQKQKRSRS

What all share (experiment): affinity purification with mass spectrometry
Assay [1] deals with BRAHMA (BRM)-GFP (Arabidopsis thaliana) (UniProt Q6EVK6).
Assay [2] has as its target T1, MINUSCULE 2 (MINU2)-GFP (Arabidopsis thaliana) (UniProt F4K128).
T1 sequence: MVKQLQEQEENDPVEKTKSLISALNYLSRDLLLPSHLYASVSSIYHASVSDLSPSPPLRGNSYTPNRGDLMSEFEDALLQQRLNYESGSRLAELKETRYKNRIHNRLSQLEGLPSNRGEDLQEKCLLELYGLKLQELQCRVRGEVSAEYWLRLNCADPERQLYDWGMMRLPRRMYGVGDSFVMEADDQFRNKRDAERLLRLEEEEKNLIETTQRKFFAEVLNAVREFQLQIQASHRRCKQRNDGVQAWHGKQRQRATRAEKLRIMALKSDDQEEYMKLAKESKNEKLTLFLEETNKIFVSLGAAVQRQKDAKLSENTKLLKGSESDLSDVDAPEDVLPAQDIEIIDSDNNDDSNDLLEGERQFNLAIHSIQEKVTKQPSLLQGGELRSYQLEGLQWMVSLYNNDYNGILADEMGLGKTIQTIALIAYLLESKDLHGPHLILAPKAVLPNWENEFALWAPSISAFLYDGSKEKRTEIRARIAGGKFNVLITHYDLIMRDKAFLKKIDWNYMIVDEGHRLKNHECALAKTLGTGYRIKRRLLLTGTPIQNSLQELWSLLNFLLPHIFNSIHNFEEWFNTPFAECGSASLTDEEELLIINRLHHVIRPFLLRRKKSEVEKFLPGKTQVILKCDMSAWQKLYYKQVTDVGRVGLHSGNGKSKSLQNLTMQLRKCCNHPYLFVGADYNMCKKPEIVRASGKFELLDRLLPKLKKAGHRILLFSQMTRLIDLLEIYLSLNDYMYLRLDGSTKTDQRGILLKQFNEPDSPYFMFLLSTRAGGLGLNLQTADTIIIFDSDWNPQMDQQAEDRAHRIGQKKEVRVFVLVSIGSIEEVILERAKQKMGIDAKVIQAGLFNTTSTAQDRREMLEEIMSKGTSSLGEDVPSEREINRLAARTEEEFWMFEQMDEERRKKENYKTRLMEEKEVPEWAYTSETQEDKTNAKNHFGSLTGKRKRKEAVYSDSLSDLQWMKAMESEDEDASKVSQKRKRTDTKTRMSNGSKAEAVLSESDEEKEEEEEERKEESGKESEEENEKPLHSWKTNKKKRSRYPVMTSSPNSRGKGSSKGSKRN

Assay [3] addresses T2, SWI3C-GFP (Arabidopsis thaliana) (UniProt Q9XI07).
T2 sequence: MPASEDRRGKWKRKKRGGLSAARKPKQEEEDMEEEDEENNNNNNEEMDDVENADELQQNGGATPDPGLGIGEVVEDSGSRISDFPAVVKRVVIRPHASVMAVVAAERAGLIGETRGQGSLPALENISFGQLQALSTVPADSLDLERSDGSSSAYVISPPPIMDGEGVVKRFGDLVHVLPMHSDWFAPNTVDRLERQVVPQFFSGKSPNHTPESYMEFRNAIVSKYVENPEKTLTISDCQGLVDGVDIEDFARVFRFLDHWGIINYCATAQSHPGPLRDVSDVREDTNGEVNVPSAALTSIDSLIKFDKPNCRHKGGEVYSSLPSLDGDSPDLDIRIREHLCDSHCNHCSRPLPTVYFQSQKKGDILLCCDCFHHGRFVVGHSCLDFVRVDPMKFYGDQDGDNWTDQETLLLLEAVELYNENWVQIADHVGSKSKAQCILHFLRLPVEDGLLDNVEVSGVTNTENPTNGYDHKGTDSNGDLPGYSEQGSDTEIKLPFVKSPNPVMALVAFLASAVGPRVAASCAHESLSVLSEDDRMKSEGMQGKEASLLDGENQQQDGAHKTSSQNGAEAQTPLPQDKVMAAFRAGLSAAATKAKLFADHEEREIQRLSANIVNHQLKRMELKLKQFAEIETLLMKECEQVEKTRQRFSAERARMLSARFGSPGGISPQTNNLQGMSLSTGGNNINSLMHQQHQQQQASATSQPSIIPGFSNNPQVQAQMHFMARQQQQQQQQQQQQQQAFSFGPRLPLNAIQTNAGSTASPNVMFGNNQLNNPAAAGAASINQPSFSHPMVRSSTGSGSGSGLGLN

The target of assay [4] is T2, SWI3C-GFP (Arabidopsis thaliana). This is another data set of the same source.
Assay [5] has as its target T1, MINUSCULE 2 (MINU2)-GFP (Arabidopsis thaliana). This is another data set of the same source.

In the case of “bromodomain-containing protein BRD1 (from UniProt Q9LM88)”, the results for the binding result in assay [1], in assay [2] and in assay [3] were “binds”, “no binding” and “binds”, respectively. Take PSA1 (from UniProt Q9LPJ1): the binding entry in assay [2] is “binds”. For BRD5, the binding entry in assay [2] is given as “binds”. As for “SWI/SNF associated protein 73B (SWP73B) (from UniProt Q9FMT4)”, the binding entry in assay [1], in assay [2] and in assay [3] was “binds” each time. Regarding “BRM-interacting protein 2 (BRIP2) (from UniProt Q9LF51)”, the values for the binding result in assay [1], in assay [2] and in assay [3] were “binds”, “no binding” and “binds”, respectively. As to “SWI/SNF associated protein 73A (SWP73A) (from UniProt F4JBZ1)”, the binding entry in assay [1] is “binds”; in assay [2], “no binding”. With bromodomain-containing protein BRD2, in assay [2], the binding result is recorded as “no binding”. The same measure, in the same setting: under TPF1 stands “binds”. The same measure, in the same setting: with OPF1 (from UniProt Q9C6P8) the entry was “binds”. Turning to BCL7B (from UniProt Q9FLP2), the binding result in assay [4] is listed as “binds weakly”; in assay [1] it was “binds”; in assay [2], “binds”; in assay [3], “binds”.

With BCL7A, the figures for the binding entry in assay [4] and in assay [3] were “binds weakly” and “binds”, respectively. With TPF2 (from UniProt F4IX81), the binding entry in assay [2] is “binds”. Turning to “BRM-interacting protein 1 (BRIP1) (from UniProt Q9SRQ0)”, the binding entry in assay [1] was “binds”; in assay [2], “no binding”; in assay [3], “binds”. On to “bromodomain-containing protein BRD13 (from UniProt F4K3B4)”, for which the binding result in assay [1] is “binds”; in assay [2], “no binding”; in assay [3] it was “binds”.

B1: BUSHY (BSH) (protein, UniProt P93045 1-240)
chain: MKGLVSTGWKGPVKFRMPTAENLVPIRLDIQFEGQRYKDAFTWNPSDPDNEVVIFAKRTVKDLKLPYAFVTQIAQSIQSQLSDFRAYEGQDMYTGEKIIPIKLDLRVNHTLIKDQFLWDLNNFESDPEEFARTLCKDLGVEDPEVGPAVAFAIREQLYEIAIQSVASARESRLSKKGRRGSDHGSASKASGLSMDLMKLFSFKSSVVRKRKDLDVYEPVVDLLTSEEVDALEAREERHAR
On to B1, for which the binding result in assay [5] was “binds”.

B2: OPF2 (protein, UniProt Q5PNS0 1-482)
chain: MHYSQTSSFGGNHTEIAKIIHKFLQPRVKQYPLWNPPSREYMSRAMACQICEVTINEMDTLLICDACEKAYHLKCLQGNNMKGVPKSEWHCSRCVQAFNGKPFPPTYGRATRAVATTTAKMPFRAAGVLSSSAKKIGPMDIKANQQKPIVSTFSRLQNTGLVSGAATTSQFESASVNAKTTASAAKTTNIGSQGSKENVACGANSPAPVSLTETPNRTGIASTISVINNGLISKPLTPVGTMSSTSPLPVVNQLPVNATSNASPSTPITASLVAQAPTVTQNGDGSSTASGTADHSILNADITTQVHTLTVTSSSNSQQAVSHSEVAKATEDAAPLENVSECEKPSESTSHPDSLNDKTISENVQESSKDAKVDSEACQNHPTASPATVVPDQDSTITAAPSVTQEDSAFNTEKTPPQPLSVSSNYDSQTEKETPNVQDSVHNVPGDSEKGKGLNGLDDRHQEQPSEPEFYKSDSVKEENAA
Consider B2, for which, in assay [5], the binding entry is listed as “binds”.

B3: SWI3D (protein, UniProt Q8VY05 1-985)
chain: MEEKRRDSAGTLAFAGSSGDSPASEPMPAPRRRGGGLKRKANALGGSNFFSSAPSKRMLTREKAMLASFSPVHNGPLTRARQAPSIMPSAADGVKSEVLNVAVGADGEKPKEEEERNKAIREWEALEAKIEADFEAIRSRDSNVHVVPNHCGWFSWEKIHPLEERSLPSFFNGKLEGRTSEVYREIRNWIMGKFHSNPNIQIELKDLTELEVGDSEAKQEVMEFLDYWGLINFHPFPPTDTGSTASDHDDLGDKESLLNSLYRFQVDEACPPLVHKPRFTAQATPSGLFPDPMAADELLKQEGPAVEYHCNSCSADCSRKRYHCPKQADFDLCTECFNSGKFSSDMSSSDFILMEPAEAPGVGSGKWTDQETLLLLEALEIFKENWNEIAEHVATKTKAQCMLHFLQMPIEDAFLDQIDYKDPISKDTTDLAVSKDDNSVLKDAPEEAENKKRVDEDETMKEVPEPEDGNEEKVSQESSKPGDASEETNEMEAEQKTPKLETAIEERCKDEADENIALKALTEAFEDVGHSSTPEASFSFADLGNPVMGLAAFLVRLAGSDVATASARASIKSLHSNSGMLLATRHCYILEDPPDNKKDPTKSKSCSADAEGNDDNSHKDDQPEEKSKKAEEVSLNSDDREMPDTDTGKETQDSVSEEKQPGSRTENSTTKLDAVQEKRSSKPVTTDNSEKPVDIICPSQDKCSGKELQEPLKDGNKLSSENKDASQSTVSQSAADASQPEASRDVEMKDTLQSEKDPEDVVKTVGEKVQLAKEEGANDVLSTPDKSVSQQPIGSASAPENGTAGGNPNIEGKKEKDICEGTKDKYNIEKLKRAAISAISAAAVKAKNLAKQEEDQIRQLSGSLIEKQLHKLEAKLSIFNEAESLTMRVREQLERSRQRLYHERAQIIAARLGVPPSMSSKASLPTNRIAANFANVAQRPPMGMAFPRPPMPRPPGFPVPGSFVAATTMTGSSDPSPGSDNVSSV
B3: in assay [5], the binding result is recorded as “no binding”.

B4: SHH2 (protein, UniProt Q8RWJ7 1-348)
chain: MGRPPSNGGPAFRFILPEVTEMEAILLQHNTAMPGRHILEALADKFSESPERKGKVVVQFKQIWNWFQNRRYALRARGNKAPGKLNVSSMPRMDLPNQMRSVIQPLSVPKTTHMTGNLPGMTPAPSGSLVPGVMRSGSDNSYLEFEAKSARDGAWYDVQAFLAHRNLEIGDPEVQVRFAGFEVEEDEWINVKKHVRQRSLPCEASECVAVLAGDLVLCFQEGKDQALYFDAIVLDAQRRRHDVRGCRCRFLVRYSHDQSEEIVPLRKICRRPETDYRLQQLHNAVNDLANSNQHQIPALDAAAKTPLSLPGATVPIVAPESKDPSLSATPATLVQPSSNAATVPAGSA
For the molecule B4, the binding entry in assay [5] is reported as “binds”.

Values taken from publication doi:10.1101/2022.11.24.517835.
